# For at least one compound, name, drawing or mass did not settle the structure.
# Test system: hPDCs
# Assay: Suppression of FGF4 downstream signaling (ERK, JNK) in hPDCs
# Format: cell-based, human
# Details: FGF4-treated hPDCs, immunoblotting
# Method: […] To analyze suppression of Notch signaling, ASCs were in cultured for 1 hour in a 10% FBS-supplemented alpha-MEM medium pretreated with or without 50 μM of Notch-inhibiting DAPT (N—[N-(3,5-difluorophenacetyl)-1-alanyl]-S-phenylglycine t-butyl ester, Sigma), and then stimulated with 25 ng/mL FGF4 for 3 days.
# Cells were first fixed in 4% PFA at room temperature for 15 minutes, and then permeabilized with 0.1% Triton X-100 for 20 minutes, followed by blocking with 10% normal goat serum (NGS). The following primary antibodies were used: anti-neuron classIII β-tubulin (Tuji), -Nestin (Covance), -Ki-67 (Novocastra), -SOX2, -NANOG, KLF4, Brachyury/Bry (all from Abcam), OCT3/4, GATA4 (all from Santa Cruz). Cells were incubated with Alexa Fluor 488 or 594-conjugated antibody (Molecular Probes) at room temperature for 1 hour, and to examine nuclei, cells were stained with 4′, 6-diamino-2-phenylindole (DAPI, 2 mg/mL in PBS). A cover-slip was sealed to a glass slide. Cells were visualized by a fluorescence microscope or a confocal fluorescence microscope (LSM 510 confocal microscope, Zeiss).
smiles,measurement,value
Oc1c2ccccc2c2c3c(cccc13)N=N2 [SP600125],Nestin protein levels,decrease in Nestin protein levels

# Source: patent US20180280447A1, “PLACENTA-DERIVED CELLS EXCRETING C3 OR C1R COMPLEMENT AND COMPOSITION CONTAINING SAME” (SUNGKWANG MEDICAL FOUNDATION, priority 2014, published 2018)
